Out of some 140,000 compounds screened, about 4,300 (3.1%) were called active. Inconclusive means that the source gave no clear call. Such entries were picked first, then a sample of the others.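 The calls were made as follows: active = readout at or below -70, meaning at least 70% loss of cells showing the perinucleolar compartment, a nuclear body marking cancer cells; inconclusive = readout between -30 and a set limit; inactive = the rest.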
Experiment: High Content Assay for Compounds that inhibit the Assembly of the Perinucleolar Compartment;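 also: plate controls were DMSO wells for no effect and camptothecin positive control wells for full effect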
Conditions: PC3M PTB-GFP, PNC prevalence imaging, 16 h; at 10 µM; stronger effect = lower value
How it was run: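 Compounds are pinned in duplicate onto adhered PC3M cells stably expressing GFP-tagged PTB and incubated 16 h at 37 C. Cells are then fixed, nuclei stained with Hoechst, and PNC-positive cells counted.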

Compound | activity change (PNC), negative = inhibition
CC1CCC(NC(=O)COc2ccc(C(=O)c3ccccc3)cc2)CC1 (stereo not given) | inconclusive: -41.9%
CCC(C)NC(=O)CC1Oc2ccc(C)cc2NC1=O (stereo not given) | inconclusive: -77.7%
COc1ccccc1NC(=O)c1ccc(N)cc1 | inconclusive: -33%
CN(C)c1ccc(-c2nc3ccccn3c2/N=C/c2ccc(Br)cc2)cc1 | active: -112%
O=C(COC(=O)/C=C/c1cccc(C(F)(F)F)c1)NCc1ccc(F)cc1 | inconclusive: -41.7%
Cc1nc(SCC(=O)Nc2cc(C)on2)c2c3c(sc2n1)CCCC3 | inactive: -9.46%
CC(C)[C@H](NC(=O)c1ccccc1F)C(=O)Nc1nc2c(s1)CCCC2 | inconclusive: -31.1%
CCn1nnnc1-c1ccc(OC)c(S(=O)(=O)N2CCCCC2)c1 | inactive: 7.28%
CCN(CC)CCCN1C(=O)c2oc3ccccc3c(=O)c2C1c1cccc(OC)c1OC (stereo not given) | inactive: 12%
COc1ccc(C2CC(=O)C(C=NCCN3CCOCC3)=C(O)C2)cc1 (stereo not given) | inconclusive: -32.8%
O=C(CCSc1ccc(Cl)c(Cl)c1)NC12CC3CC(CC(C3)C1)C2 | inactive: 52%
Cc1ccc(-c2cc(C(=O)N/N=C/c3c(C)nn(-c4ccccc4)c3C)[nH]n2)cc1 | active: -91.9%
COc1ccc(Cc2nnc(N)s2)cc1OC | inactive: 36.4%
CCOc1ccc(NC(=O)c2ccccc2O)cc1 | active: -104%
Cc1nn(C)c(C)c1S(=O)(=O)N1CCC(C(=O)NC2CCCc3ccccc32)CC1 (stereo not given) | inconclusive: -40.2%
O=C(O)CCC(=O)Nc1ccc(S(=O)(=O)N2CCCC2)cc1 | inconclusive: -79.3%
Cn1c(-c2ccc(F)cc2)cnc1NCc1cc2c(cc1[N+](=O)[O-])OCO2 | inconclusive: -69%
CC(C)CC(=O)N1CCN(c2ccc([N+](=O)[O-])cc2Cl)CC1 | inactive: 23.8%
Oc1cccc(Nc2ncnc3ccccc23)c1 | inconclusive: -56.5%
COc1cccc(N2CCN(C3C4CC5CC(C4)CC3C5)CC2)c1 (stereo not given) | inconclusive: -68.8%
Cc1ccccc1-c1nc(-c2cccnc2)no1 | inconclusive: -32.1%
O=C(O)c1cccnc1SC1CC(=O)N(CCc2ccccc2)C1=O (stereo not given) | inactive: 14.7%
C(=C\c1ccco1)/C1=NN(c2ccccc2)C(c2ccco2)C1 (stereo not given) | inconclusive: -40.3%

Compound | activity change (PNC), negative = inhibition
CCCCNC(=O)C1c2ccccc2C(=O)N(c2ccc(OC)cc2)C1c1ccc(OC)cc1 (stereo not given) | inconclusive: -68.4%
CCOC(=O)C1CCN(c2nc3cc(OC)ccc3cc2C#N)CC1 | inconclusive: -35.3%
O=[N+]([O-])c1cccc(-c2nc(Oc3ccc(Cl)cc3)c3ccccc3n2)c1 | inconclusive: -44.2%
CCOCC(=O)N1CCN(c2ccc([N+](=O)[O-])cc2)CC1 | inconclusive: -65.9%
Cn1nc([N+](=O)[O-])nc1Sc1ccc(C(C)(C)C)cc1 | inconclusive: -35%
Cc1c(C)[n+](=O)c(-c2ccc(F)cc2)c(C)n1[O-] | inconclusive: -74.6%
Cc1nn(-c2ccccc2)c(Cl)c1/C=C/C(=O)c1ccccc1 | inconclusive: -79.8%
Cc1ccc(CNC(=O)C23CN(Cc4ccccc4)CC2C(c2ccc([N+](=O)[O-])cc2)=NO3)cc1 (stereo not given) | inconclusive: -43.5%
Cc1ccc(Cn2c(SC3CCOC3=O)nc3ccccc3c2=O)cc1 (stereo not given) | inactive: 103%
Cc1ccccc1S(=O)(=O)Nc1nc2ccccc2nc1N1CCOCC1 | inconclusive: -56.9%
CCOC(=O)c1sc(/N=C/c2c(C)[nH]n(-c3ccccc3)c2=O)c(C#N)c1C | active: -112%
CC(=O)NC1=NN(C(C)=O)C2(S1)C(=O)N(C(C)C)c1ccc(C)cc12 (stereo not given) | inactive: -16%
COc1ccc(CCn2c(NCCCN3CCOCC3)nc3c2c(=O)[nH]c(=O)n3C)cc1 | inconclusive: -61%
COC(=O)C1CC(=O)c2ccsc2C1 (stereo not given) | active: -109%
COC(=O)/C(=C/c1cccnc1)NC(=O)c1ccccc1 | inconclusive: -57.9%
COCCn1c(C)cc(C(=O)COC(=O)c2ccc3c(c2)NC(=O)CS3)c1C | inactive: -16.4%
CCc1ccc(C(=O)N2CCC(c3nc4ccccc4s3)CC2)cc1 | inconclusive: -30.2%
CC(C)NC(=S)Nc1ccc(S(=O)(=O)Nc2ncccn2)cc1 | inconclusive: -50.5%
COc1ccc(CCNS(=O)(=O)c2ccc(C(=O)NCc3ccco3)cc2)cc1OC | inconclusive: -44.8%
CCOC(=O)C1CCc2sc(N)c(C#N)c21 (stereo not given) | active: -135%
CC(C)NC(=O)c1cc(-c2ccco2)on1 | inconclusive: -46.4%
Cn1cccc1C(=O)NC(=O)CSc1cccc[n+]1[O-] | active: -94.5%

Reformatted as comma-separated lines: entries from further up.
Compound,"activity change (PNC), negative = inhibition"
Cc1ccc(CNC(=O)C23CN(Cc4ccccc4)CC2C(c2ccc([N+](=O)[O-])cc2)=NO3)cc1 (stereo not given),inconclusive: -43.5%
COCCn1c(C)cc(C(=O)COC(=O)c2ccc3c(c2)NC(=O)CS3)c1C,inactive: -16.4%
CCc1ccc(C(=O)N2CCC(c3nc4ccccc4s3)CC2)cc1,inconclusive: -30.2%
CC(C)NC(=O)c1cc(-c2ccco2)on1,inconclusive: -46.4%
